The record followed here is patent US20050260693A1 (MOUNT SINAI SCHOOL OF MEDICINE, published 2005).

By UniProt entry, the sequences of proteins in these tests, tags left out.
UniProt P25322: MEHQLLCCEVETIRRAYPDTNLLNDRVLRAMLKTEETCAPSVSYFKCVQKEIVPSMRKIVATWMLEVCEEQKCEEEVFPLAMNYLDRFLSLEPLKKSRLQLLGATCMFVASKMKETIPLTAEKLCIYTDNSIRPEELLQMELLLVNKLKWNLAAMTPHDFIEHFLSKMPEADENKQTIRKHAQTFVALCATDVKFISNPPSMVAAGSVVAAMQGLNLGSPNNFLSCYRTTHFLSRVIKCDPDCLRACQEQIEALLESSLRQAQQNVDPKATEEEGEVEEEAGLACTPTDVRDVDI
UniProt Q61457: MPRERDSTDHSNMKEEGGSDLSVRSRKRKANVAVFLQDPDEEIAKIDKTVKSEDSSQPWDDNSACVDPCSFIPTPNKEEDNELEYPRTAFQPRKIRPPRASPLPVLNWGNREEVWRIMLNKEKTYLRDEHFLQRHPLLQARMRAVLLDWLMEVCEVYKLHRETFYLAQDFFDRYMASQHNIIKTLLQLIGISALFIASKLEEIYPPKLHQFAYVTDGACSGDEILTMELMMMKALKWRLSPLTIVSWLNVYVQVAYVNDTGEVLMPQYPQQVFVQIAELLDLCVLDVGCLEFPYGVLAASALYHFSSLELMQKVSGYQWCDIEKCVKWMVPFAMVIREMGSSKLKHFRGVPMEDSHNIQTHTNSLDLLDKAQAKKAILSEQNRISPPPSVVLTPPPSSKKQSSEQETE
UniProt P00520: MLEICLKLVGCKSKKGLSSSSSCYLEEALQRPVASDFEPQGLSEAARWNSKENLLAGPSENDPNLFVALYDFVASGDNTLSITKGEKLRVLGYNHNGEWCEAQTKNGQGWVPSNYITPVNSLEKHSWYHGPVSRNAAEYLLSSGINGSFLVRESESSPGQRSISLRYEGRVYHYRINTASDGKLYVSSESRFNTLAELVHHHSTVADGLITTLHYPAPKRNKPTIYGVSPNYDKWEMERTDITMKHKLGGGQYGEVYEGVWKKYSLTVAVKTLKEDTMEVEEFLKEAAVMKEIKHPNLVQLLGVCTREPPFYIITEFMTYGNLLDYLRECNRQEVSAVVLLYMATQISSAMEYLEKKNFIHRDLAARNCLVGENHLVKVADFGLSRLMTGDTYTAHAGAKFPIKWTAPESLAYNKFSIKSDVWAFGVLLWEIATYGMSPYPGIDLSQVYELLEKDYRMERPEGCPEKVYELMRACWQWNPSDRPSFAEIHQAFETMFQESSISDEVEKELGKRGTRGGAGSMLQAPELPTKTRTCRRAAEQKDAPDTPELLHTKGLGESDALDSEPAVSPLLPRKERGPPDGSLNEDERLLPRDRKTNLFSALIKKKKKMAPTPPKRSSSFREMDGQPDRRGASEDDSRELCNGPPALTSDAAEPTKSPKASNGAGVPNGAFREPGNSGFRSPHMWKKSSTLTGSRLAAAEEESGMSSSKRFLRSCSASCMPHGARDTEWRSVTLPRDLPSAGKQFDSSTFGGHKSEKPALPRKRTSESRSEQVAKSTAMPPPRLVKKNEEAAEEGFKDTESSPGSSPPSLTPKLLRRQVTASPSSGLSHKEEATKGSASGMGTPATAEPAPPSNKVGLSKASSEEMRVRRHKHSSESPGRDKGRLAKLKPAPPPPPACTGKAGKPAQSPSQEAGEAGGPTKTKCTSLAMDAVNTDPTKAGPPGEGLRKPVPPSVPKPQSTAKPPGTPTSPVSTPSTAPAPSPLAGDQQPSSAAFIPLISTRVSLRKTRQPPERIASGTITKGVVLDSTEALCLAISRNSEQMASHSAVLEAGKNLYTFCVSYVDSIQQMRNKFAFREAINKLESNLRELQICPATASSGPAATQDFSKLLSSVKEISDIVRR

Experiment [1] addresses T1, pRb (UniProt P13405).
T1 sequence (looked up): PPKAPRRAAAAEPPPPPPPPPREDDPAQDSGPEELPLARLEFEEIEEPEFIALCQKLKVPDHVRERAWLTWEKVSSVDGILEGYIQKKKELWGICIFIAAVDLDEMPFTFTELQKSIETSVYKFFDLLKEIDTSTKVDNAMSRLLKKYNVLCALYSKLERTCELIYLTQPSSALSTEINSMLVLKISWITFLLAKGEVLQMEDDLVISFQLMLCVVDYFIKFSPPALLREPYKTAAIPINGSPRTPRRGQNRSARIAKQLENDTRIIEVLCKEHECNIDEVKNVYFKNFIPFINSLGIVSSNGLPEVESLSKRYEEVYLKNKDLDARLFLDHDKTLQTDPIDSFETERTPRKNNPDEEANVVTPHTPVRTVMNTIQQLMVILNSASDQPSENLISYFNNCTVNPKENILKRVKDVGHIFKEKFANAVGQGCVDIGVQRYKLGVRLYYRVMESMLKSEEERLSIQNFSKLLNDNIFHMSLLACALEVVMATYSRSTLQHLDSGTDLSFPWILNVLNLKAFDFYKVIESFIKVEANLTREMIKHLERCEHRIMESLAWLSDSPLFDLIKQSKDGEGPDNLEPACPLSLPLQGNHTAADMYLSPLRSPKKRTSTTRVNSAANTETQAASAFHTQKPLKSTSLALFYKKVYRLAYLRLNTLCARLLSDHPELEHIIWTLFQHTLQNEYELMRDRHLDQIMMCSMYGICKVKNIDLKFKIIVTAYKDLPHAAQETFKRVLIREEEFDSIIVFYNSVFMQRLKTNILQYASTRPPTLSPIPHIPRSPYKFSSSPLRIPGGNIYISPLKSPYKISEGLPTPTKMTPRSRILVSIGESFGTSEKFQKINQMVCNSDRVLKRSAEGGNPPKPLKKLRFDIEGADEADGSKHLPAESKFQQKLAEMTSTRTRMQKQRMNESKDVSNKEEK
Kind of experiment: method not described (levels of pRb-bound c-Abl in SSeCKS-overexpressing cells).

Experiment [2] addresses cyclin D1 (endogenous and ectopic) of S24, S24/D1, S24/V and V3 cells (UniProt P25322). Kind of experiment: GST pull-down with mutated GST-SSeCKS2.
In experiment [3] the target is cellular cyclin E (UniProt Q61457). Put plainly: GST pull-down from cell lysates, blot stripped and reprobed with cyclin E-specific antibody.
Experiment [4] concerns the target cyclin D1 (endogenous and ectopic) of S24, S24/D1, S24/V and V3 cells (UniProt P25322). Put plainly: GST pull-down from cell lysates, anti-cyclin D1 immunoblot.

No constants are given. Whether binding was seen depends on the method and setting. For some assays here: Binding seen in cells or lysates may run through a third protein. Some binding calls cover weakened binding; strength is not graded here. For some assays here: Tags and fused reporters may be left off the sequences shown.

With “c-Abl protein (from UniProt P00520 1-1123) (enzyme)”, in experiment [1], the binding result is reported as “binds”.

B1: GST-SSeCKS2 with first L to S (protein, not shown: a dimerising Fc or GST)
chain: AHQEVVAEVHVSTVEKTEEEQGGGGEAEGGVVVEGTGESLPPEKLAEPQEVPQEAEPAEELMKSREMCVSGGDHTQLTDLSPEEKTLPKHPEGIVSEVEMLSSQERIKVQGSPLKKSFSSSGLKKLSGKKQKGKRGGGGDEEPGEYQHIHTESPESADEQKGES
Consider B1, for which the binding result in experiment [2] is listed as “binds”.

B2: GST-SSeCKS2 with second L to S (protein, not shown: a dimerising Fc or GST)
chain: AHQEVVAEVHVSTVEKTEEEQGGGGEAEGGVVVEGTGESLPPEKLAEPQEVPQEAEPAEELMKSREMCVSGGDHTQLTDLSPEEKTLPKHPEGIVSEVEMLSSQERIKVQGSPLKKLFSSSGLKKSSGKKQKGKRGGGGDEEPGEYQHIHTESPESADEQKGES
As for B2, the binding result in experiment [2] is “binds”.

B3: GST-SSeCKS-2 (protein, not shown: a dimerising Fc or GST)
chain: AHQEVVAEVHVSTVEKTEEEQGGGGEAEGGVVVEGTGESLPPEKLAEPQEVPQEAEPAEELMKSREMCVSGGDHTQLTDLSPEEKTLPKHPEGIVSEVEMLSSQERIKVQGSPLKKLFSSSGLKKLSGKKQKGKRGGGGDEEPGEYQHIHTESPESADEQKGES
B3: the binding result in experiment [3] and in experiment [4] was “binds” each time.
